No constants are given. Whether binding was seen depends on the method and setting. In cells and extracts the contact can be indirect. A yes stands for co-enrichment or nearness to the bait. Other partners may have been found.
B1: NFKB2 (protein, UniProt Q00653)
chain: MESCYNPGLDGIIEYDDFKLNSSIVEPKEPAPETADGPYLVIVEQPKQRGFRFRYGCEGPSHGGLPGASSEKGRKTYPTVKICNYEGPAKIEVDLVTHSDPPRAHAHSLVGKQCSELGICAVSVGPKDMTAQFNNLGVLHVTKKNMMGTMIQKLQRQRLRSRPQGLTEAEQRELEQEAKELKKVMDLSIVRLRFSAFLRASDGSFSLPLKPVISQPIHDSKSPGASNLKISRMDKTAGSVRGGDEVYLLCDKVQKDDIEVRFYEDDENGWQAFGDFSPTDVHKQYAIVFRTPPYHKMKIERPVTVFLQLKRKRGGDVSDSKQFTYYPLVEDKEEVQRKRRKALPTFSQPFGGGSHMGGGSGGAAGGYGGAGGGGSLGFFPSSLAYSPYQSGAGPMGCYPGGGGGAQMAATVPSRDSGEEAAEPSAPSRTPQCEPQAPEMLQRAREYNARLFGLAQRSARALLDYGVTADARALLAGQRHLLTAQDENGDTPLHLAIIHGQTSVIEQIVYVIHHAQDLGVVNLTNHLHQTPLHLAVITGQTSVVSFLLRVGADPALLDRHGDSAMHLALRAGAGAPELLRALLQSGAPAVPQLLHMPDFEGLYPVHLAVRARSPECLDLLVDSGAEVEATERQGGRTALHLATEMEELGLVTHLVTKLRANVNARTFAGNTPLHLAAGLGYPTLTRLLLKAGADIHAENEEPLCPLPSPPTSDSDSDSEGPEKDTRSSFRGHTPLDLTCSTKVKTLLLNAAQNTMEPPLTPPSPAGPGLSLGDTALQNLEQLLDGPEAQGSWAELAERLGLRSLVDTYRQTTSPSGSLLRSYELAGGDLAGLLEALSDMGLEEGVRLLRGPETRDKLPSTAEVKEDSAYGSQSVEQEAEKLGPPPEPPGGLCHGHPQPQVH
B2: Nup155 (protein, UniProt O75694 1-1391)
chain: MPSSLLGAAMPASTSAAALQEALENAGRLIDRQLQEDRMYPDLSELLMVSAPNNPTVSGMSDMDYPLQGPGLLSVPNLPEISSIRRVPLPPELVEQFGHMQCNCMMGVFPPISRAWLTIDSDIFMWNYEDGGDLAYFDGLSETILAVGLVKPKAGIFQPHVRHLLVLATPVDIVILGLSYANLQTGSGVLNDSLSGGMQLLPDPLYSLPTDNTYLLTITSTDNGRIFLAGKDGCLYEVAYQAEAGWFSQRCRKINHSKSSLSFLVPSLLQFTFSEDDPILQIAIDNSRNILYTRSEKGVIQVYDLGQDGQGMSRVASVSQNAIVSAAGNIARTIDRSVFKPIVQIAVIENSESLDCQLLAVTHAGVRLYFSTCPFRQPLARPNTLTLVHVRLPPGFSASSTVEKPSKVHRALYSKGILLMAASENEDNDILWCVNHDTFPFQKPMMETQMTAGVDGHSWALSAIDELKVDKIITPLNKDHIPITDSPVVVQQHMLPPKKFVLLSAQGSLMFHKLRPVDQLRHLLVSNVGGDGEEIERFFKLHQEDQACATCLILACSTAACDREVSAWATRAFFRYGGEAQMRFPTTLPPPSNVGPILGSPVYSSSPVPSGSPYPNPSFLGTPSHGIQPPAMSTPVCALGNPATQATNMSCVTGPEIVYSGKHNGICIYFSRIMGNIWDASLVVERIFKSGNREITAIESSVPCQLLESVLQELKGLQEFLDRNSQFAGGPLGNPNTTAKVQQRLIGFMRPENGNPQQMQQELQRKFHEAQLSEKISLQAIQQLVRKSYQALALWKLLCEHQFTIIVAELQKELQEQLKITTFKDLVIRDKELTGALIASLINCYIRDNAAVDGISLHLQDICPLLYSTDDAICSKANELLQRSRQVQNKTEKERMLRESLKEYQKISNQVDLSNVCAQYRQVRFYEGVVELSLTAAEKKDPQGLGLHFYKHGEPEEDIVGLQAFQERLNSYKCITDTLQELVNQSKAAPQSPSVPKKPGPPVLSSDPNMLSNEEAGHHFEQMLKLSQRSKDELFSIALYNWLIQVDLADKLLQVASPFLEPHLVRMAKVDQNRVRYMDLLWRYYEKNRSFSNAARVLSRLADMHSTEISLQQRLEYIARAILSAKSSTAISSIAADGEFLHELEEKMEVARIQLQIQETLQRQYSHHSSVQDAVSQLDSELMDITKLYGEFADPFKLAECKLAIIHCAGYSDPILVQTLWQDIIEKELSDSVTLSSSDRMHALSLKIVLLGKIYAGTPRFFPLDFIVQFLEQQVCTLNWDVGFVIQTMNEIGVPLPRLLEVYDQLFKSRDPFWNRMKKPLHLLDCIHVLLIRYVENPSQVLNCERRRFTNLCLDAVCGYLVELQSMSSSVAVQAITGNFKSLQAKLERLH
B3: Nup93 (protein, UniProt Q8N1F7 1-819)
chain: MDTEGFGELLQQAEQLAAETEGISELPHVERNLQEIQQAGERLRSRTLTRTSQETADVKASVLLGSRGLDISHISQRLESLSAATTFEPLEPVKDTDIQGFLKNEKDNALLSAIEESRKRTFGMAEEYHRESMLVEWEQVKQRILHTLLASGEDALDFTQESEPSYISDVGPPGRSSLDNIEMAYARQIYIYNEKIVNGHLQPNLVDLCASVAELDDKSISDMWTMVKQMTDVLLTPATDALKNRSSVEVRMEFVRQALAYLEQSYKNYTLVTVFGNLHQAQLGGVPGTYQLVRSFLNIKLPAPLPGLQDGEVEGHPVWALIYYCMRCGDLLAASQVVNRAQHQLGEFKTWFQEYMNSKDRRLSPATENKLRLHYRRALRNNTDPYKRAVYCIIGRCDVTDNQSEVADKTEDYLWLKLNQVCFDDDGTSSPQDRLTLSQFQKQLLEDYGESHFTVNQQPFLYFQVLFLTAQFEAAVAFLFRMERLRCHAVHVALVLFELKLLLKSSGQSAQLLSHEPGDPPCLRRLNFVRLLMLYTRKFESTDPREALQYFYFLRDEKDSQGENMFLRCVSELVIESREFDMILGKLENDGSRKPGVIDKFTSDTKPIINKVASVAENKGLFEEAAKLYDLAKNADKVLELMNKLLSPVVPQISAPQSNKERLKNMALSIAERYRAQGISANKFVDSTFYLLLDLITFFDEYHSGHIDRAFDIIERLKLVPLNQESVEERVAAFRNFSDEIRHNLSEVLLATMNILFTQFKRLKGTSPSSSSRPQRVIEDRDSQLRSQARTLITFAGMIPYRTSGDTNARLVQMEVLMN

Chains of the proteins cited; added tags and fusions are not shown.
UniProt P25963: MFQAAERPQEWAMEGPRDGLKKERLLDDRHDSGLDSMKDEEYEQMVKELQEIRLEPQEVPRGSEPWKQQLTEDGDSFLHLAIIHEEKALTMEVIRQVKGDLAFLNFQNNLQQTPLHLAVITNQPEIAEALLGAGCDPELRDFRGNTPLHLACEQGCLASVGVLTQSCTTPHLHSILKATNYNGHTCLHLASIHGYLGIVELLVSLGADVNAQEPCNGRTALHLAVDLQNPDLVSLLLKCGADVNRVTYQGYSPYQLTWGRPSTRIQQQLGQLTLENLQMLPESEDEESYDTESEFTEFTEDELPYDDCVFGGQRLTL
UniProt P49792: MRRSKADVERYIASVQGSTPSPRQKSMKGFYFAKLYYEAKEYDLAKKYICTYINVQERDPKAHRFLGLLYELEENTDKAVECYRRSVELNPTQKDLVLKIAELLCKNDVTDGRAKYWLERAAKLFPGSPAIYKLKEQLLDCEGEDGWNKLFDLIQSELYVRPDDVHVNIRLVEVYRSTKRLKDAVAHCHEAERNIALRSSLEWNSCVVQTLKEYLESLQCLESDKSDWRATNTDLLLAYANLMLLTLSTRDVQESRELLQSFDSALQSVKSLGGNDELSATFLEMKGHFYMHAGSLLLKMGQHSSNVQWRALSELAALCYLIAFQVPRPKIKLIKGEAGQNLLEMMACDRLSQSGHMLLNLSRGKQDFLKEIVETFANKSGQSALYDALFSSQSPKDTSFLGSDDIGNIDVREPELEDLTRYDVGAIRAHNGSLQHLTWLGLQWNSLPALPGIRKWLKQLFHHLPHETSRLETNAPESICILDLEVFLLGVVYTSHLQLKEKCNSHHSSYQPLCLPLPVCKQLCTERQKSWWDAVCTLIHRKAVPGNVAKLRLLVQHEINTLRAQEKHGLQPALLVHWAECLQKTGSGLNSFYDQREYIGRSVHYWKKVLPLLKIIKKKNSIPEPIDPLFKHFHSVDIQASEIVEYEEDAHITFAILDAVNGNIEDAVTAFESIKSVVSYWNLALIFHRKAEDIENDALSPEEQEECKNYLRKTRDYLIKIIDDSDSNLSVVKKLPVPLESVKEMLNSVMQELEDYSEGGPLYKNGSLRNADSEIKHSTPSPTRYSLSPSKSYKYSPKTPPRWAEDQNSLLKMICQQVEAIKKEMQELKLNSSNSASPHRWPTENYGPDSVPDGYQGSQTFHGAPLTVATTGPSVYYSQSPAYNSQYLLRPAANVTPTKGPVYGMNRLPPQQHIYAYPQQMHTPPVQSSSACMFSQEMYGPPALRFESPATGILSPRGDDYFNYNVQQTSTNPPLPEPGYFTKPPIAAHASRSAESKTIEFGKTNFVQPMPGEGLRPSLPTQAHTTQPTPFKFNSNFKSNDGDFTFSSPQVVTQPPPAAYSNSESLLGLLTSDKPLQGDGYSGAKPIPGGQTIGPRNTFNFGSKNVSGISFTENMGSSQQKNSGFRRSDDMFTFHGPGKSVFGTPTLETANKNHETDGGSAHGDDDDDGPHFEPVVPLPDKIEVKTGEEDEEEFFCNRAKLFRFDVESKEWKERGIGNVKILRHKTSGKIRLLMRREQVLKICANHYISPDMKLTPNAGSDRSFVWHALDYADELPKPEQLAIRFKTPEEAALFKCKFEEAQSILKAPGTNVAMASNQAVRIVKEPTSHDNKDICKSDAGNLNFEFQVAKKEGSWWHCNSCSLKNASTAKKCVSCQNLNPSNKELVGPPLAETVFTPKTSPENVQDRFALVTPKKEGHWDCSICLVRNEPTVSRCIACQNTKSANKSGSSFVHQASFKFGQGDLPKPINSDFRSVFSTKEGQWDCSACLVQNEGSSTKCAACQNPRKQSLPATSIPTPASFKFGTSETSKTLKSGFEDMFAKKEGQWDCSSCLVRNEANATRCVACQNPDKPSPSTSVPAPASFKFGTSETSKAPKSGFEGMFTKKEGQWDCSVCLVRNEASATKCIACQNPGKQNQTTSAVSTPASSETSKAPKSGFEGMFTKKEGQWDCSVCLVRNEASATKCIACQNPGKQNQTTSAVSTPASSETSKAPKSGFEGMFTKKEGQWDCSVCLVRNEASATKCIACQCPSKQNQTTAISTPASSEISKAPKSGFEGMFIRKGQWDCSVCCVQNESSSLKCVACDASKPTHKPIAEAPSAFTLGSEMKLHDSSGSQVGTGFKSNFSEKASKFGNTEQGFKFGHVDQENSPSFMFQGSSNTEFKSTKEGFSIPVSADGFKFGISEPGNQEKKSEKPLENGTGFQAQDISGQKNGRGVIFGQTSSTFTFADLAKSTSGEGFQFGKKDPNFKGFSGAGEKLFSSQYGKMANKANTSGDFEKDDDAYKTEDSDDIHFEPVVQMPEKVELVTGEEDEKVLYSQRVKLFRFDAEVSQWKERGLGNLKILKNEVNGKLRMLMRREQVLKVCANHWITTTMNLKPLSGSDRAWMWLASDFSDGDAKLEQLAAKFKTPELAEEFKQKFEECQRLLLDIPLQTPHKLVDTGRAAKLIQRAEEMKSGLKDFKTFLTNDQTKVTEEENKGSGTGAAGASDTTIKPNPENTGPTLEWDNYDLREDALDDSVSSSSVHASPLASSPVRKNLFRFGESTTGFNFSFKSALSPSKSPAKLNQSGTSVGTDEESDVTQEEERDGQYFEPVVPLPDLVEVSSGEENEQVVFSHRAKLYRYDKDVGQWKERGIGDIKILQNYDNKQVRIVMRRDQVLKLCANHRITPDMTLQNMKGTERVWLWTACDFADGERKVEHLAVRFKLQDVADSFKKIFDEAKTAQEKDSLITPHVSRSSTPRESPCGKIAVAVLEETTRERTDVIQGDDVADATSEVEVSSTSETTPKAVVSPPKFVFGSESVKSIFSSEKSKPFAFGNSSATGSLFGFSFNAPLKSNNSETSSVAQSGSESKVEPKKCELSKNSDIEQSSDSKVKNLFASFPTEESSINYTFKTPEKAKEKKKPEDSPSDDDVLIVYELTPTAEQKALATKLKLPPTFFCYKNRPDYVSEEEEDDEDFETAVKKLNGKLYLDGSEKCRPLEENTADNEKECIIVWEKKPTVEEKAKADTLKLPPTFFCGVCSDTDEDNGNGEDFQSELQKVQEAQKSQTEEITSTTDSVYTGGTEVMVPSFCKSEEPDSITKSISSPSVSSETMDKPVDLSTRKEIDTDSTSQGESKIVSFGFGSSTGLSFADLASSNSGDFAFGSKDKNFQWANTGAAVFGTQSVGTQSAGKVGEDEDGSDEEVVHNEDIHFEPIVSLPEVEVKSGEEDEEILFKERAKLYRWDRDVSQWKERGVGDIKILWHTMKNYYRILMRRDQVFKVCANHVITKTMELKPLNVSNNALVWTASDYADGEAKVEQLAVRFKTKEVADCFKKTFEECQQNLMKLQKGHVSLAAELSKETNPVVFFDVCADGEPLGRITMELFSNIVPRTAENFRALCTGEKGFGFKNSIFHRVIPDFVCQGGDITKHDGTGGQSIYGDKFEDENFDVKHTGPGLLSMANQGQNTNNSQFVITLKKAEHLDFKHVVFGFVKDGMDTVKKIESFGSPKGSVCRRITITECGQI
UniProt P19838: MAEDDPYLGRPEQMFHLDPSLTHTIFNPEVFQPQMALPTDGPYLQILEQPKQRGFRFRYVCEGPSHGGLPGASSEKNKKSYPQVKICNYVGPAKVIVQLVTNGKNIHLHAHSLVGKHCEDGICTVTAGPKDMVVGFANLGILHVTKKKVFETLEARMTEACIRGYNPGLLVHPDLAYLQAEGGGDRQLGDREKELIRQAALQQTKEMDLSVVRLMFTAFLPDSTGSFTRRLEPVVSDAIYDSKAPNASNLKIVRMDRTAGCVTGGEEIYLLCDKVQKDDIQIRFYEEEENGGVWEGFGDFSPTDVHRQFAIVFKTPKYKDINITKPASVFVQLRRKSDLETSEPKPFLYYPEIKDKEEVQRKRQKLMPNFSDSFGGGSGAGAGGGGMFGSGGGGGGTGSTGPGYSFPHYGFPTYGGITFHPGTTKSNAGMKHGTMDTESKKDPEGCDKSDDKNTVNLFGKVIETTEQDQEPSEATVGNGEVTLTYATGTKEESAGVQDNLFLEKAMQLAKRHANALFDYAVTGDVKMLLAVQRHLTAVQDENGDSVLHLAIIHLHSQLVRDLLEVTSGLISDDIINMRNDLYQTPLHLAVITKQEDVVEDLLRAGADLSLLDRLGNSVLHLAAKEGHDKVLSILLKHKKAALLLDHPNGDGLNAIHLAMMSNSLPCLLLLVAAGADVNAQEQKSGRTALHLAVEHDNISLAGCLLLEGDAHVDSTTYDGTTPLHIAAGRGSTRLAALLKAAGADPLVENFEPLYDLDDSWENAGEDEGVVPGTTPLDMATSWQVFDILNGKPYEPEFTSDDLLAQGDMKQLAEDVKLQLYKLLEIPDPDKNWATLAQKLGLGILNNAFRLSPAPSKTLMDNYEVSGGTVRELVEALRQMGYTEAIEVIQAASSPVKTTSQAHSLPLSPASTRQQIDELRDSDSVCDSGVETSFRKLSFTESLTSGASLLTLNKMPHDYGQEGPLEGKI
UniProt P49790: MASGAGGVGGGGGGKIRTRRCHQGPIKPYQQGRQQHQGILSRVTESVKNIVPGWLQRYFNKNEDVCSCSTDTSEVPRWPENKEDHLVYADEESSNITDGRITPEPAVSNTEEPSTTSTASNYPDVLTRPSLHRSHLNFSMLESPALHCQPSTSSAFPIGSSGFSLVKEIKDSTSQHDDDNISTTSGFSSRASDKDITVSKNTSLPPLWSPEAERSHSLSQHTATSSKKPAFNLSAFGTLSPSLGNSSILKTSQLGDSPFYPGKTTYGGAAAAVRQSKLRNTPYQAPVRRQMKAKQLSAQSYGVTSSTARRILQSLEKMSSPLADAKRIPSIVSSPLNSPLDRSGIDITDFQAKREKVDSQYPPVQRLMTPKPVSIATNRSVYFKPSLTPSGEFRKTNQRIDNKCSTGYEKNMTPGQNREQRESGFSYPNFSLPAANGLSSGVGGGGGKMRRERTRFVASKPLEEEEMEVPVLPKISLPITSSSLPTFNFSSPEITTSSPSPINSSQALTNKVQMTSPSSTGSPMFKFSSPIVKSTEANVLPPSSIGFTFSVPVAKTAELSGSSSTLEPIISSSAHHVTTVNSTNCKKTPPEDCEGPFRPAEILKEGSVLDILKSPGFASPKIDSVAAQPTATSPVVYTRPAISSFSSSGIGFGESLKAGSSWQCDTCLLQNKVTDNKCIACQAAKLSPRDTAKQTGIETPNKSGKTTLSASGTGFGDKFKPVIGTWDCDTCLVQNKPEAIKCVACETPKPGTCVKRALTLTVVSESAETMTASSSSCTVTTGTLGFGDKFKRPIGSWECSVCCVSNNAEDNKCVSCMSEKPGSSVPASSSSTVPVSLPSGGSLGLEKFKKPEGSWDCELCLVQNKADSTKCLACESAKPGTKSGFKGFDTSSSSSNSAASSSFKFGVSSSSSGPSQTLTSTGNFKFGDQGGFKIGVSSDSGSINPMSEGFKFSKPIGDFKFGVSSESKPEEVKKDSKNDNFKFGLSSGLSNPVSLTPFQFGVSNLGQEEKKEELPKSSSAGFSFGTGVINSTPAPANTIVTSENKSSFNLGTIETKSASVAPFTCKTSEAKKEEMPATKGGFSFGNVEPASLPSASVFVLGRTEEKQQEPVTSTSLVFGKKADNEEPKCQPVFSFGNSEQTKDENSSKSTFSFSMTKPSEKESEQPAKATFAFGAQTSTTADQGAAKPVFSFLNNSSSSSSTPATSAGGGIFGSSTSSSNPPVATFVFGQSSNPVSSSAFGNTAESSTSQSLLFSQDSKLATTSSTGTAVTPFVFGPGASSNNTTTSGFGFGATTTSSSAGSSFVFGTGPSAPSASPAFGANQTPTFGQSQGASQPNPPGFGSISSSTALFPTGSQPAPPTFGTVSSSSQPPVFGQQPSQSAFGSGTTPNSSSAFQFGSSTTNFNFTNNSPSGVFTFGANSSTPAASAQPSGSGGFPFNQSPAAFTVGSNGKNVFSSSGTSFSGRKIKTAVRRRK

biological target: N-terminally mEmerald (GFP)-tagged IκBα (UniProt P25963); test: affinity purification with mass spectrometry

Molecule	binding
Nup358/SUMO E3-ligase RANBP2 (from UniProt P49792 1-3224)	binds
NFKB1 (from UniProt P19838)	binds
Nup153 (endogenous, HEK293T) (from UniProt P49790 1-1475)	binds
B1	binds
B2	binds
B3	binds

— doi:10.1101/585497
